Results: PMC4833825
No constants are given. Whether binding was seen depends on the method and setting. For some assays here: In cells and extracts the contact can be indirect. Some entries that bind do so weakly or less than the wild type. Tags and fused reporters may be left off the sequences shown.

T1: β subunit of S. pombe eIF2B, tags cleaved (S. pombe) (UniProt Q9UT76)
T1 sequence: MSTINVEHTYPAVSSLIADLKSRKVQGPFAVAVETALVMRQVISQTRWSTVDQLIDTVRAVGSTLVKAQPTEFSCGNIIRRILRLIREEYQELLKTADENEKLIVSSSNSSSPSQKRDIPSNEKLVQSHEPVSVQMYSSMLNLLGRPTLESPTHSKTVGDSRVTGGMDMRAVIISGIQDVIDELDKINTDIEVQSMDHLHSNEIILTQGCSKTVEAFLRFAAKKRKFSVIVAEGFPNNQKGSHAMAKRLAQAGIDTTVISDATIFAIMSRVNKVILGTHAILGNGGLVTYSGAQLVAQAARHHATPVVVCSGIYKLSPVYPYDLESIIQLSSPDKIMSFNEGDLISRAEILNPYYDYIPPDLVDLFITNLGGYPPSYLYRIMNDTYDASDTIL

T2: MBP-His6-fused β subunit of S. pombe eIF2B (S. pombe) (UniProt Q9UT76)
T2 sequence: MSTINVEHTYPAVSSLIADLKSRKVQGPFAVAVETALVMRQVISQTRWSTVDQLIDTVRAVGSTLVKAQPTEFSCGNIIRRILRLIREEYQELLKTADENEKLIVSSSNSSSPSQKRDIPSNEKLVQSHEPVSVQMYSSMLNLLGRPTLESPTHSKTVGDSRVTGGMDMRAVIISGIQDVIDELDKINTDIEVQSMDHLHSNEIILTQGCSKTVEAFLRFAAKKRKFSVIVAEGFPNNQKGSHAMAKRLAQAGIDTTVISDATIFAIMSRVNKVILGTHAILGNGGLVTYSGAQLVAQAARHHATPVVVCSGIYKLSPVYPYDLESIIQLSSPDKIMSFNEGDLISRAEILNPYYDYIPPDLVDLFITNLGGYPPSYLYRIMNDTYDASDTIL


Key:
[1] = biological target: T1, β subunit of S. pombe eIF2B, tags cleaved (S. pombe); assay: SEC; purified complex after HRV 3C cleavage of the tags; Sephacryl S-300, then Superose 6 with HMW calibration kit, buffer C (20 mM HEPES-KOH pH 7.5, 150 mM KCl, 5 % glycerol, 1 mM DTT), 277 K; SDS-PAGE of the purified complex; both purified
[2] = biological target: T2, MBP-His6-fused β subunit of S. pombe eIF2B (S. pombe); assay: pull-down; lysate of E. coli Rosetta2(DE3) co-expressing all five subunits applied to Amylose Resin (MBP tag on the β subunit), eluted with 10 mM maltose, then HiTrap Heparin; 20 mM HEPES-KOH pH 7.5, 150 mM KCl, 277 K; SDS-PAGE (Fig. 2i: wild type and α-subunit mutants)

binding [1] | binding [2] | Binder
binds | binds | δ subunit of S. pombe eIF2B (protein, UniProt Q09924 1-467) MGFSAEQAKKDGKDQSPVSESSSVGGTSPATASSVVSPNEPKLSGKEAKALKKARKQASRRAKAEAAAANNPPGVSEEKKVAIPNKNSNQQKKASKQNPQNSPETDANLQEKKIFEEKQVSIFSHLDWRRRRTTENIPKDIHPAVIRLGLKLANYKIFGSNQRCIDLLKTFKIVIQDYQTPYGTTLSRHLTTHINSQIAYLVSTRPLSISMGNAIRFLKLEISVLDIDLTDDEGKELLLEKIDSYIRDRIIIAGQVIVQAATEKIQDGDVILTYLHSSTVNDVLIHAKNVGKKFRVVVVDSRPEFEGRVCLKLLTEHGIECTYVMISALSYIMQEVTKIFLGGHAMLSNGALYSRAGTSLISLLGHESNVPVIACCESYKFTERIQLDSLVYNELAPGDQLVNMGVDDFEEKPGVLANWKSVKNLKLLSLKYDVTPPRLITVCVCEMGLLPSTSVPAIINEFKQVYA
binds |  | ε subunit of S. pombe eIF2B, tag cleaved (protein, UniProt P56287 1-678) MPPSKGLNGKLEKPKHALQAIVLSDSYNYRFRPLTLDKPRCLLPLANTPLIEYTFEFLALAGVQEVYVFCCAHAGQIREYIEKSKWNLPSSPFSVNTIVSRESLSVGDALRELDSKQLITSDFILVSGDVVSNVPLNEVLKEHRKRREDDKNAIMTMVVREASPFHRTRARTESSVFVIDKKTSQCVHYQANERGKHYVSMDPEIFNEHEELEVRNDLIDCQIDICSNDVPALFTENFDYQDIRKDFVYGVLTSDLLGKKIHCHVAKENYAARVRSLQTYDAISKDVLSRWVYPFVPDSNLLNQTFSYQRHQIYKEEDVVLARSCIIKARTLIGAYTKVGDASVVANTIIGRNCTIGSNCSIDSAFLWEDVVIGDNCRIGKAILANSVKIGNNCSIEDGAIVAAGVVIGDNTIIEKNKRLTTFESHSQGTLNDPSLVGIGGRGQEYHAEEDSDDEGEFMEASGLIESTNELHLSDSESSETSSSSEEDMEFIPFSARRDSANTINSEDFDEGDFNKEAQQSLERAFEENHQIDIAALELNTLRMAMNANYHEVRSAIVLALLRRIMHLDVSPKEALAKVMTRWGPLLAKLTFSHEEQVDNVLTLQKYCVRLSMTRHFLQLLGYFYQLEIAEENAIQEWYSDPRSSEGELAALRDAGGKQFVDWLNTAESESESEEGSE

Further lines, the binder ahead of its results:

Binder | binding [1] | binding [2]
non-tagged γ subunit of S. pombe eIF2B (protein, UniProt P56288 1-458) MSLYEHAALPLASSPSILGPISGGRNRGNIQLQSIPIEFQAVVFAGFGNSLYPLTGSDALPKALLPIGNKPMLHYPLYWLEAAGFTSAILICMEEAEAHINAWLRSGYEGHMRIHVEAPTILDDSKSSADALRAVSHLIKNDFVCLSCDSIVGLPPIYGLDKFRLDNPSALAVYSPVLKYEHITSQSKEIDAKQLIGIEEKTSRLLYAKSSADVGSDFTFRMSLLWKHPRVTLNTNLSDAHIFVFKHWVIDLIREKESISSIRGDLIPYLVKCQYQKSFTVRENIQRFLSSPNNIDNYDGGLSSQEIKINALIAKDGIICSRANNLPNYFELNKCIAKLTPEQRLVDVTVSERALVGADCMVNEGTTIKDNSNIKKSIIGKNCVIGKGVVVSNSILMDNIVVEDGVRLESCIVASGAQIGAKSKLRECEIGVDHRVEAGRIARGERLVDMEKIETDMD | binds | binds
α subunit of S. pombe eIF2B, tag cleaved (protein, UniProt Q9USP0 1-341) MVESDSSGIVRHSQGEFDIVQVYKKFLQDDPEITMPVAAIEALVQLLSRSQAKTISEFMDILQNGSNTLKEGVQNNISLSAGCDIFQRFVTRSLHDVGDFEQCKRHLVENGKLFIQRARACRQRIAHLGYPLIRDGSVILTHGFSRGVAAVLLAAAKRHVRFKVFVTESRPSGSGCLMTRTLKNACIPTCMVLDSAVSFTMNRVDLVLVGAEGVVENGGLINQIGTFQLAVFAKHAHKPFYAVAESHKFVRMFPLSQYDIPFSRPILEFDDPSPETVHPEPEPIPTPSDAIHNELIMNEEQIRNNPTLDVTPPEFVSGLITDLGIIDSKSGVSEELIKLYL | binds | 
His6-fused α subunit of S. pombe eIF2B (protein, UniProt Q9USP0 1-341) MVESDSSGIVRHSQGEFDIVQVYKKFLQDDPEITMPVAAIEALVQLLSRSQAKTISEFMDILQNGSNTLKEGVQNNISLSAGCDIFQRFVTRSLHDVGDFEQCKRHLVENGKLFIQRARACRQRIAHLGYPLIRDGSVILTHGFSRGVAAVLLAAAKRHVRFKVFVTESRPSGSGCLMTRTLKNACIPTCMVLDSAVSFTMNRVDLVLVGAEGVVENGGLINQIGTFQLAVFAKHAHKPFYAVAESHKFVRMFPLSQYDIPFSRPILEFDDPSPETVHPEPEPIPTPSDAIHNELIMNEEQIRNNPTLDVTPPEFVSGLITDLGIIDSKSGVSEELIKLYL |  | binds
N-terminally His6-fused ε subunit of S. pombe eIF2B (protein, UniProt P56287 1-678) MPPSKGLNGKLEKPKHALQAIVLSDSYNYRFRPLTLDKPRCLLPLANTPLIEYTFEFLALAGVQEVYVFCCAHAGQIREYIEKSKWNLPSSPFSVNTIVSRESLSVGDALRELDSKQLITSDFILVSGDVVSNVPLNEVLKEHRKRREDDKNAIMTMVVREASPFHRTRARTESSVFVIDKKTSQCVHYQANERGKHYVSMDPEIFNEHEELEVRNDLIDCQIDICSNDVPALFTENFDYQDIRKDFVYGVLTSDLLGKKIHCHVAKENYAARVRSLQTYDAISKDVLSRWVYPFVPDSNLLNQTFSYQRHQIYKEEDVVLARSCIIKARTLIGAYTKVGDASVVANTIIGRNCTIGSNCSIDSAFLWEDVVIGDNCRIGKAILANSVKIGNNCSIEDGAIVAAGVVIGDNTIIEKNKRLTTFESHSQGTLNDPSLVGIGGRGQEYHAEEDSDDEGEFMEASGLIESTNELHLSDSESSETSSSSEEDMEFIPFSARRDSANTINSEDFDEGDFNKEAQQSLERAFEENHQIDIAALELNTLRMAMNANYHEVRSAIVLALLRRIMHLDVSPKEALAKVMTRWGPLLAKLTFSHEEQVDNVLTLQKYCVRLSMTRHFLQLLGYFYQLEIAEENAIQEWYSDPRSSEGELAALRDAGGKQFVDWLNTAESESESEEGSE |  | binds
